Data taken from patent US20220244254A1, “Screening Methods and Assays for Use with Transmembrane Proteins, in Particular with GPCRs” (CONFO THERAPEUTICS N.V., priority 2019, published 2022).
Results are given in words; binding and its absence hold for the method and conditions named. Some binding calls cover weakened binding; strength is not graded here. Tags and fused reporters may be left off the sequences shown.

Molecular target: recombinant human OX2R receptor (OX2-MOR chimer) fused at the C-terminus to LgBiT (human)
Assay: NanoBiT complementation of XA8633-SmBiT and recombinant OX2R (OX2-MOR chimer)-LgBiT in HEK 293T cells, agonist-dependent signal (Example 10, FIGS. 18 to 22)

B1: XA8633 fusion (XA8633 fused at the C-terminus to SmBiT) (VHH)
VHH: QVQLQESGGGLVRPGGSRRLSCVDSERTSYPMGWFRRAPGKEREFVASITWSGIDPTYADSVADRFTISRDVANNTLYLQMNSLKHEDTAVYYCAARAPVGQSSSPYDYDYWGQGTQVTVSS
**Q.** B1 was tested. Which binding did it give?
**A.** binds
